# Measurements as given in the supplement of paper PMC12067093, “Discovery and optimisation of a covalent ligand for TRIM25 and its application to targeted protein ubiquitination” (Chemical Science, 2025).
# Sequences of proteins named here, by UniProt entry; tags and fusion partners are left off. A change or cut given only in a name is not applied to a line headed by its entry.
# UniProt O43172: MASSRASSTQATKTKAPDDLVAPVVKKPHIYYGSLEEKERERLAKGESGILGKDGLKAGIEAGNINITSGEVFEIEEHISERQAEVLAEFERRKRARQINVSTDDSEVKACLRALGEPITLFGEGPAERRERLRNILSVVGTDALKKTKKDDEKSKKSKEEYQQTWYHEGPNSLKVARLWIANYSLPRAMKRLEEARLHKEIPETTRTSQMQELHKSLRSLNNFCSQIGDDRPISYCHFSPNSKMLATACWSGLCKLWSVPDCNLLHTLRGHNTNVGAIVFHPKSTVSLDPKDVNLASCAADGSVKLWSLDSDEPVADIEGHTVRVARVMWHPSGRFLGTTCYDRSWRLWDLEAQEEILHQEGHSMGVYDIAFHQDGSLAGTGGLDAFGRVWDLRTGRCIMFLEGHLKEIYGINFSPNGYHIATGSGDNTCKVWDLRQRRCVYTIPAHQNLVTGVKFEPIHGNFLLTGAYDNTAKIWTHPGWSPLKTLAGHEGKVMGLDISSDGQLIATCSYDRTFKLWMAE
# UniProt P78527, whole entry, looked up: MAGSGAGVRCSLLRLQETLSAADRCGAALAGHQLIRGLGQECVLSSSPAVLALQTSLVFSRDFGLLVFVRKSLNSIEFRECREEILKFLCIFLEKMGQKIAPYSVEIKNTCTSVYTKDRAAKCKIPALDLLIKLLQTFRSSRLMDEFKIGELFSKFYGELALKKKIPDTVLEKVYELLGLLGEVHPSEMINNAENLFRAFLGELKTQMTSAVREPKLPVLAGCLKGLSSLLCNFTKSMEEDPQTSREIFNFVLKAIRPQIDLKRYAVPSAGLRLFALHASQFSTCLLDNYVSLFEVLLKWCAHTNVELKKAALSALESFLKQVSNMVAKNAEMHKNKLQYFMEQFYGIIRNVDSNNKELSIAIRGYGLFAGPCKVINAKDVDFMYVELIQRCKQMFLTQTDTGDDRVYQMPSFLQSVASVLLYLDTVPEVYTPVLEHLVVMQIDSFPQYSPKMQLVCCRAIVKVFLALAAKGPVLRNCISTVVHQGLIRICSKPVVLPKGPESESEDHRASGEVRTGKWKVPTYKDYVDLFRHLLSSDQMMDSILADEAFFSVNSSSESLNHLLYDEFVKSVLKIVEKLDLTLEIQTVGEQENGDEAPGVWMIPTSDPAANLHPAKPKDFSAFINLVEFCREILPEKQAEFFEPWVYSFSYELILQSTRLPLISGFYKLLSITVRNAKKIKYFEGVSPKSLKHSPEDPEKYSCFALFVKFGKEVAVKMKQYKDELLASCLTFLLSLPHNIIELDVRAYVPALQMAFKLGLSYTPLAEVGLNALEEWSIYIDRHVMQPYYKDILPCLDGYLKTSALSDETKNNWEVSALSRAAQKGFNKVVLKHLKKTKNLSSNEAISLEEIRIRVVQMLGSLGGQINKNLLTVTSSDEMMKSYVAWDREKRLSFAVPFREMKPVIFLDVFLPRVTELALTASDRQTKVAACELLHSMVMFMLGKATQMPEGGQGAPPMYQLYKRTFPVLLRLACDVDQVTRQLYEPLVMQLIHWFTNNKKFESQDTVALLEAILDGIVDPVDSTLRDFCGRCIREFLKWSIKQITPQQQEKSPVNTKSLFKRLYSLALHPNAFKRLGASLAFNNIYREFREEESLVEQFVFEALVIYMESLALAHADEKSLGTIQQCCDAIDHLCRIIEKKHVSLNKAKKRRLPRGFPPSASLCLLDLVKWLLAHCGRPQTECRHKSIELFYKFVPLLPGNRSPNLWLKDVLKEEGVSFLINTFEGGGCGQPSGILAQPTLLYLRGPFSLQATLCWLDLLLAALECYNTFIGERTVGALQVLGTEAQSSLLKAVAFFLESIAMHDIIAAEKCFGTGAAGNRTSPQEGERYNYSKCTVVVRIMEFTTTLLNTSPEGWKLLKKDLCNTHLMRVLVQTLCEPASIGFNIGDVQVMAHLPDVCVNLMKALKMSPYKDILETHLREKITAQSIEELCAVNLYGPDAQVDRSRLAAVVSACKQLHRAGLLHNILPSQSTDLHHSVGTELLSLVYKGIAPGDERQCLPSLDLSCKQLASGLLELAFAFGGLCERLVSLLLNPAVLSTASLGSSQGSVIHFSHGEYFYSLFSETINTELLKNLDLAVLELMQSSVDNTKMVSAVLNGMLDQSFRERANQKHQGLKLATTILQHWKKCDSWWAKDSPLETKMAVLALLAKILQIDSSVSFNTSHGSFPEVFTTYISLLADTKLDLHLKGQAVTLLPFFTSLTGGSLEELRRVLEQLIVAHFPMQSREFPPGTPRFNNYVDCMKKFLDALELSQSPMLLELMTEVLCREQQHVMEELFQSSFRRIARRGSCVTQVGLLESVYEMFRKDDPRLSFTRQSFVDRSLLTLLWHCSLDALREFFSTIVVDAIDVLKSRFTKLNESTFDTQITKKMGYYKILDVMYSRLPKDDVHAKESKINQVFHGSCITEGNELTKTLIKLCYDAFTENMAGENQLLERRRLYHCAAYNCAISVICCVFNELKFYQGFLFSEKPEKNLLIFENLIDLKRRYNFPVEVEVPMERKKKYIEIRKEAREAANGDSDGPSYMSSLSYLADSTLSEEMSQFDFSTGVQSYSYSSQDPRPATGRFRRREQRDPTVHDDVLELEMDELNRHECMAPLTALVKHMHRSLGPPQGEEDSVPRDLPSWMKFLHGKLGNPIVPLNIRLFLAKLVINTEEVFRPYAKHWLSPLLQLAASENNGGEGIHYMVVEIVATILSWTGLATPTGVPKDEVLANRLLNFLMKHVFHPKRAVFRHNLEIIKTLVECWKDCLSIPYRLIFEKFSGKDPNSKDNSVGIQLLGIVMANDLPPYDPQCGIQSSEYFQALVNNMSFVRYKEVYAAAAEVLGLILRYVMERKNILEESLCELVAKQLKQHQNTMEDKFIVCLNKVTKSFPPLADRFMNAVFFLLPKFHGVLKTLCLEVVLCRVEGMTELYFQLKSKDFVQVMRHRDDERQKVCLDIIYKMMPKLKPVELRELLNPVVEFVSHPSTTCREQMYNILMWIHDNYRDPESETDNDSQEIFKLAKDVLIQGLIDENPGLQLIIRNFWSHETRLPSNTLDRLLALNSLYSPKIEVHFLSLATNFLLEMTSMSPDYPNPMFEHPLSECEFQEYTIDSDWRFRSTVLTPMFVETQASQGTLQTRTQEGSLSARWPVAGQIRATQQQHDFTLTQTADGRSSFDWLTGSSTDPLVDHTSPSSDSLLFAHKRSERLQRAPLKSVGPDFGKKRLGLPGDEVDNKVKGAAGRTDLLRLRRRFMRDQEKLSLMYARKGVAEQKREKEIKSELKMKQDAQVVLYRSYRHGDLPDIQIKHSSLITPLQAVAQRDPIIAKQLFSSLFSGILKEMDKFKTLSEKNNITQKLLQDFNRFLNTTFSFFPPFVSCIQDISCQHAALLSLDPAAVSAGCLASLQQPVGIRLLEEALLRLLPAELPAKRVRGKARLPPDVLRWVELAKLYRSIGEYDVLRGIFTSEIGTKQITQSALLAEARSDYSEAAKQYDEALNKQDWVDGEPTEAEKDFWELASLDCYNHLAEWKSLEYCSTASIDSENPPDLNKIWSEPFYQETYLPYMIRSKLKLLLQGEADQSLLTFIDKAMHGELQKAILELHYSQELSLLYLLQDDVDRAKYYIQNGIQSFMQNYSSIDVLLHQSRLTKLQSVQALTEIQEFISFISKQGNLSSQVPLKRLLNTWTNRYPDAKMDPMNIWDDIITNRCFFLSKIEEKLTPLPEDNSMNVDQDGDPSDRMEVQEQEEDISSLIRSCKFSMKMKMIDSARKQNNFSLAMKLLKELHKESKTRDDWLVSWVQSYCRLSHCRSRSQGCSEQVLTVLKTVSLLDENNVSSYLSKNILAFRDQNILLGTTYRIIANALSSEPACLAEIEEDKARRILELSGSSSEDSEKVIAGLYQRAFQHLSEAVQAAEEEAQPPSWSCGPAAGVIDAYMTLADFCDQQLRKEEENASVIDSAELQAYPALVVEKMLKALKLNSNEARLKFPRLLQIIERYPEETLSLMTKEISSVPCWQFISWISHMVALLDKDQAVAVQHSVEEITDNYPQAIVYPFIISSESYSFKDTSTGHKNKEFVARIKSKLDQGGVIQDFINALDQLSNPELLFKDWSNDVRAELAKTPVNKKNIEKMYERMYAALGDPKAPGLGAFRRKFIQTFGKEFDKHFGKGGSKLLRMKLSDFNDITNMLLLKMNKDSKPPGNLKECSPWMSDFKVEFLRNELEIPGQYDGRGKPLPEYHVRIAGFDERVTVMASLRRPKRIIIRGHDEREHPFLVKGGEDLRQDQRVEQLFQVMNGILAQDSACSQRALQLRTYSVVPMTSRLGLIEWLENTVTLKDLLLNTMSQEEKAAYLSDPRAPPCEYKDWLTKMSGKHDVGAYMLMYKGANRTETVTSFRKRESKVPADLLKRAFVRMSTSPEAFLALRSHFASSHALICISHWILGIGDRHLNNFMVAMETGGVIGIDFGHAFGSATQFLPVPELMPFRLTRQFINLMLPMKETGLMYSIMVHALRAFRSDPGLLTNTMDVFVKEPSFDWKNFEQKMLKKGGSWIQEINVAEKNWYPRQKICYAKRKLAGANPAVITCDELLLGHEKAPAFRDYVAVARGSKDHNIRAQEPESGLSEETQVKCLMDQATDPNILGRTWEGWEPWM
# UniProt Q9NVM4: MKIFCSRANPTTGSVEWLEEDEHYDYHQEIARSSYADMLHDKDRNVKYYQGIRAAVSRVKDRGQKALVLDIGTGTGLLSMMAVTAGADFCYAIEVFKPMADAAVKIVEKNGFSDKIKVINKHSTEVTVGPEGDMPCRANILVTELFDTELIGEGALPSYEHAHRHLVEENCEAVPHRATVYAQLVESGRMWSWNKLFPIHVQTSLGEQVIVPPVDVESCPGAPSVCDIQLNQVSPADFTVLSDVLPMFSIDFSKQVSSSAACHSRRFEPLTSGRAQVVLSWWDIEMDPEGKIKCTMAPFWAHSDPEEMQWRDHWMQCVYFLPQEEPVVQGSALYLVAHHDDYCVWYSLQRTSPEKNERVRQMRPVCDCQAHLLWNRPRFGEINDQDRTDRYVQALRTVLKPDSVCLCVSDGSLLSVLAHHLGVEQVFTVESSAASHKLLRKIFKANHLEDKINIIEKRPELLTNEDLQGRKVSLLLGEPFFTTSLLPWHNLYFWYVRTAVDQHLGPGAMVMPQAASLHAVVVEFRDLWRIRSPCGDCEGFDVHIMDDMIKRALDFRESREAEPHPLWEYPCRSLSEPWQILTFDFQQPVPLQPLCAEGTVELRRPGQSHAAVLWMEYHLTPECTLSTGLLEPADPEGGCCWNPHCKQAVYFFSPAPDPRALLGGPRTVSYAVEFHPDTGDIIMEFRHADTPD
# UniProt O94906: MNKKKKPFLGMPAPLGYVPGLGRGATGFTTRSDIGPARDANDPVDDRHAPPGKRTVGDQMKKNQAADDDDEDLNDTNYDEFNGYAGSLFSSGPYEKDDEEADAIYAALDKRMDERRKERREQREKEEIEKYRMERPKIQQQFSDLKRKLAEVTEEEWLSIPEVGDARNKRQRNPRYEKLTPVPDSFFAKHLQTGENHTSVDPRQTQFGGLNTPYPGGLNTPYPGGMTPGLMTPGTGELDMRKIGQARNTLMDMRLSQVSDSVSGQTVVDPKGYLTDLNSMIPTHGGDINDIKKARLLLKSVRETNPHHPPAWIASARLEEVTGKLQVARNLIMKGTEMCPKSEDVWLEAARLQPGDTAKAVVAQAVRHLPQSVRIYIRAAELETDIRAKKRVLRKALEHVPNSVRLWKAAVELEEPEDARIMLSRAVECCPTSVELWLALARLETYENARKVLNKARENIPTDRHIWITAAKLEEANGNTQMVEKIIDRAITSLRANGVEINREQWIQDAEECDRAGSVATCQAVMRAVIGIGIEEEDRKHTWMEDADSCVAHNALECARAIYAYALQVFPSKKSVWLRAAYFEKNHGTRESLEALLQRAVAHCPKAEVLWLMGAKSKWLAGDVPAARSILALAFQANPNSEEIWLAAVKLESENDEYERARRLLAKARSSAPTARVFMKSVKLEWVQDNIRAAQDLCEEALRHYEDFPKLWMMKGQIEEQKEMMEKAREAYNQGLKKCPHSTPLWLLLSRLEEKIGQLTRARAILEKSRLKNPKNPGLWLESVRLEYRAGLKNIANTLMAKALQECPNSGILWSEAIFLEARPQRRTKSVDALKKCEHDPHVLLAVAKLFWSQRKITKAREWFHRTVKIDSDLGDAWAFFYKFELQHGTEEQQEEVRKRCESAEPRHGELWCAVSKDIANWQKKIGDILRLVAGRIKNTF
# UniProt P25787: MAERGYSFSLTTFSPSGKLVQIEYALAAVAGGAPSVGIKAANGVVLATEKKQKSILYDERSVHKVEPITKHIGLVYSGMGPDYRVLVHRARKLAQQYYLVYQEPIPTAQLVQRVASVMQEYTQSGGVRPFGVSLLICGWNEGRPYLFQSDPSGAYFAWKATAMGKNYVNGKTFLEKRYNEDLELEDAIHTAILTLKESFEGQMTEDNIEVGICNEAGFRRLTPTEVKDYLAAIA
# The other results are listed elsewhere or left out.
# Compound: Cc1cc(ccc1-c1ccccc1)C(=O)N1CCCN(CC1)C(=O)CCl [compound 10]
# Assay: probe-labelled cysteine peptide fold change vs DMSO (competition) (log2 fold change); higher = less target engagement (more negative = stronger competition)
# Conditions: 50 µM; THP-1; incubation time: 4 h
# 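Note: competitive profiling in live THP-1 cells: cysteine peptides tagged with an iodoacetamide desthiobiotin (IA-DTB) probe, intensity after compound treatment relative to DMSO-treated cells.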
row,Target,probe-labelled cysteine peptide fold change
1,PRPF4_O43172_441_CVYTIPAHQNLVTGVK (UniProt O43172),0.12
2,PRKDC_P78527_457_MQLVCCR (UniProt P78527),0.188
3,PRMT7_Q9NVM4_136_HSTEVTVGPEGDMPCR (UniProt Q9NVM4),-0.257
4,PRPS2_P11908_165_NCIIVSPDAGGAK (UniProt P11908),0.0546
5,PRUNE1_Q86TP1_303+313_QLAIFCPHVALQTTICEVLER (UniProt Q86TP1),-0.0166
6,PRKDC_P78527_3001_DFWELASLDCYNHLAEWK (UniProt P78527),0.0867
7,PRKAR1A_P10644_18_SLRECELYVQK (UniProt P10644),-0.803
8,PRPF6_O94906_901_CESAEPR (UniProt O94906),-0.033
9,PSMA2_P25787_213_ESFEGQMTEDNIEVGICNEAGFRR (UniProt P25787),-0.258
10,PRPF39_Q86UA1_413_ACTIHLPK (UniProt Q86UA1),0.109
11,PRKDC_P78527_1176_WLLAHCGR (UniProt P78527),0.383
12,PRPF4_O43172_399_CIMFLEGHLK (UniProt O43172),0.0696
13,PRKCA_P17252_406_VLALLDKPPFLTQLHSCFQTVDR (UniProt P17252),0.544
14,PRKDC_P78527_4106_CLMDQATDPNILGR (UniProt P78527),-0.125
15,PRKDC_P78527_1135_SLGTIQQCCDAIDHLCR (UniProt P78527),0.263
16,PSD4_Q8NDX1_32_LPDHPQPMEILNLYLGDSLEPHPGECPR (UniProt Q8NDX1),0.075

# Single entries from the list:
# Under probe-labelled cysteine peptide fold change, PRPF6_O94906_901_CESAEPR (UniProt O94906) has the entry -0.033
# Under probe-labelled cysteine peptide fold change, PRKDC_P78527_1176_WLLAHCGR (UniProt P78527) has the entry 0.383
